Laboratory results: PubChem BioAssay AID2685 (National Center for Advancing Translational Sciences (NCATS), 2010)
Some of the results follow. Shown are side measurements of this screen, not its main read-out; they come without a call. Most of these compounds were active or inconclusive in the main read-out, so they are no random draw. Words in brackets tell the shape of the fitted curve; partial curves, single points and poor fits give uncertain potencies.

Assay: qHTS Assay for Lipid Storage Modulators in Drosophila S3 Cells;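 for cell number change: cells counted by Cell Tracker Red CMTPX staining in the red channel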
Conditions: BODIPY lipid droplet fluorescence, 18-24 h; for cell number change: measured here: cell count max response, cells fed with added oleic acid
Summary of the method: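 Laser-scanning cytometry quantifies lipid droplet accumulation (500–530 nm total intensity; droplet/cell object ratio) in oleic acid-fed (400 uM added) Drosophila S3 cells treated with a concentration series. 20 uM Triacsin C defined 100% inhibition.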

[1] = measured here: lipid fluorescence (Fed channel) AC50, cells fed with added oleic acid
[2] = measured here: cell number channel AC50, cells fed with added oleic acid

| SMILES | cell number change [%] | AC50 [1] | AC50 [2] |
| --- | --- | --- | --- |
| N#Cc1ccsc1NC(=O)C1CCN(C(=O)c2ccc(F)cc2)CC1 | -4.42 | 2.91 µM [rising, single point] |  |
| Cc1nc2c(-c3ccc(F)cc3)c(C)nn2c(C)c1CCC(=O)NCc1ccco1 | -22.8 | 0.461 µM [rising, full curve, poor fit] |  |
| Cc1ccc(C(=O)Nc2ccc(C(=O)N/N=C/c3c[nH]c4ccccc34)cc2)cc1 | -22.5 | 18.4 µM [falling, single point] |  |
| CCOc1cc(CNc2ccc(N3CCN(C(C)=O)CC3)cc2)cc(Br)c1OC | 14.5 | 14.6 µM [rising, partial curve] |  |
| CC(C)c1ccc(N(C(=O)c2snc(C(N)=O)c2N)C(C(=O)NC2CCCC2)c2ccncc2)cc1 (stereo not drawn) | -1.28 |  |  |
| Cc1ccccc1Cn1nc(C)c(NC(=O)c2nc3n(n2)C(C(F)F)CC(C)N3)c1C (stereo not drawn) | 0.291 | 1.46 µM [rising, partial curve] |  |
| CCC(C)[C@H](NC(=O)c1cn(CC)c2cc3c(cc2c1=O)OCO3)C(=O)NCCCn1ccnc1 (stereo partly drawn) | 15.3 |  |  |
| Cc1onc(-c2c(Cl)cccc2Cl)c1C(=O)NCc1ccco1 | 2.51 | 32.6 µM [falling, single point] |  |
| CC(O)CNCc1ccc(-c2ccccc2)cc1 (stereo not drawn) | -5.79 |  |  |
| O=C1c2ccccc2C(=O)N1n1c(=O)[nH]c2ccccc2c1=O |  | 1.3 µM [falling, full curve] | 6.51 µM [rising, partial curve] |
| COc1cccc(CNC(=O)CCC2CCCN(C(=O)Cc3ccccc3F)C2)c1 (stereo not drawn) | 1.09 | 23.1 µM [falling, single point] |  |
| O=C(O)c1ccccc1-c1nc(-c2ccccc2)c(-c2ccccc2)[nH]1 | 8.82 |  |  |
| O=C(CN1C(=O)CSC1=O)Nc1ccc(N2CCOCC2)cc1 |  | 0.058 µM [falling, full curve, poor fit] |  |
| Cc1ccc(N2CCN(S(=O)(=O)c3ccc(Cl)s3)CC2C)cc1 (stereo not drawn) | 50.8 | 0.146 µM [rising, full curve, poor fit] | 29.1 µM [rising, partial curve] |
| CC1CCN(CCCCOc2ccc(C(C)(C)C)cc2)CC1 | -9.15 | 6.51 µM [rising, single point] |  |
| CC(C)c1ccc(NC2=NCC(=O)N2Cc2cccs2)cc1 | -11 | 14.6 µM [falling, single point] |  |
| Cc1[nH]c2ccc(-c3n[nH]c(=S)n3-c3ccccc3)cc2c1C | 8.56 | 0.082 µM [rising, full curve] |  |

| SMILES | cell number change [%] | AC50 [1] | AC50 [2] |
| --- | --- | --- | --- |
| O=C(COC(=O)c1ccccc1)NC(=O)NC1CCCC1 | -5.62 |  |  |
| COc1ccc(/C=C(/CC(=O)Nc2ccc(C)cc2)c2nc3ccccc3s2)cc1 | -17.9 |  |  |
| CCOC(=O)c1cc(C#N)c(N2CCN(c3ccc(OC)cc3)CC2)[nH]c1=O | 6.49 |  | 0.366 µM [falling, single point] |
| Cn1cc(CNC(=O)c2cc(-c3ccc(Br)cc3)nc3ccccc23)cn1 | -28.9 |  | 0.00731 µM [falling, full curve, poor fit] |
| C/C(=N\O)c1ccc(Cl)c(Cl)c1 | 11.9 | 6.51 µM [falling, single point] |  |
| O=C(Cn1nc(Cc2ccncc2)c2ccccc2c1=O)Nc1cccnc1Cl | 9.42 | 0.116 µM [rising, full curve, poor fit] |  |
| COC(=O)c1ccccc1CC1SC(N)=NC1=O (stereo not drawn) | 23.9 |  |  |
| Cn1cc(Br)c(-c2cccc(N3C(=O)CCCC3=O)c2)n1 | -6.14 | 0.103 µM [falling, full curve, poor fit] |  |
| COc1ccc(S(=O)(=O)N2CCN(c3ccccc3OC)CC2)cc1OC | 2.73 | 1.16 µM [falling, full curve, poor fit] | 0.291 µM [falling, partial curve] |
| CCOC(=O)/C(=C\C=C1/Sc2cc(OCC)c(OCC)cc2N1CC)C(C)=O | -98.9 | 8.2 µM [falling, partial curve] | 5.8 µM [falling, full curve] |
| Clc1ccc(Cl)c(Oc2ccc(Oc3nc(Cl)ccc3Cl)cc2)n1 | 2.63 |  |  |
| O=C(Nc1cccc(O)c1)C1CC(c2ccc(Cl)cc2)=NO1 (stereo not drawn) | 14.4 |  |  |
| O=S(=O)(c1ccc(Cl)cc1)N1CCC(N2CCCCCC2)CC1 | 20.1 | 29.1 µM [falling, single point] |  |
| Cc1ccccc1NC(=O)Cn1c(=O)oc2ccccc21 | -5.49 | 23.1 µM [rising, single point] |  |
| CC1CCCCC1NC(=O)COC(=O)c1ccc([N+](=O)[O-])o1 (stereo not drawn) |  | 1.84 µM [falling, partial curve] |  |
| CC(C)C1C(=O)CC(c2ccccc2)NC1c1ccccc1 (stereo not drawn) | 15 | 23.1 µM [rising, partial curve] |  |

Exported with tabs: entries from further up
SMILES	cell number change [%]	AC50 [1]	AC50 [2]
Cn1cc(CNC(=O)c2cc(-c3ccc(Br)cc3)nc3ccccc23)cn1	-28.9		0.00731 µM [falling, full curve, poor fit]
C/C(=N\O)c1ccc(Cl)c(Cl)c1	11.9	6.51 µM [falling, single point]	
